The values that follow come from patent US20230310621A1, “COMPLEXES FOR THE DELIVERY OF PROTEINACEOUS AGENTS” (priority 2020, published 2023).

The nature of the data set: DLS monitoring of PAEC formation with different surfactants. The format is physicochemical. To be noted: P24/CpG/surfactant/DA002 50/20/2 to 100/90 μg/mL.
Regarding `C[C@H](CCC(=O)[O-])[C@H]1CC[C@H]2[C@@H]3[C@H](O)C[C@@H]4C[C@H](O)CC[C@]4(C)[C@H]3C[C@H](O)[C@]12C.[Na+]` [Chol, sodium salt of cholic acid], the “group of surfactant by PAEC formation (DLS)” value (shortened to “group of surfactant”) was “Group 1”.

As for `C[C@H](CCC(=O)O)[C@H]1CC[C@H]2[C@@H]3CC[C@@H]4C[C@H](O)CC[C@]4(C)[C@H]3C[C@H](O)[C@]12C` [D-Chol, deoxycholate], the “group of surfactant” value is on record as “Group 1”.

Consider `CCCCCCCCCCCCOS(=O)(=O)[O-].[Na+]` [Free SDS, sodium dodecyl sulphate], for which the “group of surfactant” value is “Group 2”.

Tween 85: the “group of surfactant” value was “Group 3”.
